In patent US20170145058 (published 2017):

Assay: peptide synthesis
Settings: for final LC-MS purity: LC/MS (Method 3)
[1] = late stage modification step, run 1
[2] = late stage modification step, run 2

4-{4-[(6R,9S 12S,15S,18S,21R)-21-{[({[(Aminoacetyl)amino]acetyl}amino)acetyl]amino}-6-{[(25)-2-({(2S)-6-amino-1-[(2-amino-2-oxoethyl)amino]-1-oxohexan-2-yl}carbamoyl)pyrrolidin-1-yl]carbonyl}-9-(2-amino-2-oxoethyl)-12-(3-amino-3-oxopropyl)-15-benzyl-18-(4-hydroxybenzyl)-8,11,14,17,20-pentaoxo-1,4-dithia-7,10,13,16,19-pentaazacyclodocosan-2-yl]butyl}-4-methylmorpholin-4-ium trifluoroacetate
final LC-MS purity [1]: 65%
final LC-MS purity [2]: 87%
step yield [1]: 4% of theory
step yield [2]: 8% of theory

5-[(6R,9S,12S,15S,18S,21R)-21-{[({[(Aminoacetyl)amino]acetyl}amino)acetyl]amino}-6-{[(2S)-2-({(2S)-6-amino-1-[(2-amino-2-oxoethyl)amino]-1-oxohexan-2-yl}carbamoyl)pyrrolidin-1-yl]carbonyl}-9-(2-amino-2-oxoethyl)-12-(3-amino-3-oxopropyl)-15-benzyl-18-(4-hydroxybenzyl)-8,11,14,17,20-pentaoxo-1,4-dithia-7,10,13,16,19-pentaazacyclodocosan-2-yl]pentanoic acid
step yield (late stage modification step): 2.6% of theory

(2S)-1-{[(3R,6S,9S,12S,15S,18R,22aS,23R,23aR)-18-{[({[(Aminoacetyl)amino]acetyl}amino)acetyl]amino}-6-(2-amino-2-oxoethyl)-9-(3-amino-3-oxopropyl)-12-benzyl-15-(4-hydroxybenzyl)-23-(hydroxymethyl)-5,8,11,14,17-pentaoxohexacosahydro-20aH-cyclopropa[5, 6]cycloocta[1,2-b][1,4,7,10,13,16,19]dithiapentaazacyclodocosin-3-yl]carbonyl}-N-{(2S)-6-amino-1-[(2-amino-2-oxoethyl)amino]-1-oxohexan-2-yl}pyrrolidine-2-carboxamide
step yield (late stage modification step): 7.5% of theory
final LC-MS purity (late stage modification step): 65%

(2S)-1-{[(6R,9S,12S,15S,18S,21R)-21-{[({[(Aminoacetyl)amino]acetyl}amino)acetyl]amino}-9-(2-amino-2-oxoethyl)-12-(3-amino-3-oxopropyl)-15-benzyl-18-(4-hydroxybenzyl)-8,11,14,17,20-pentaoxo-2-(27-oxo-2,5,8,11,14,17,20,23-octaoxa-26-azatriacontan-30-yl)-1,4-dithia-7,10,13,16,19-pentaazacyclodocosan-6-yl]carbonyl}-N-{(2S)-6-amino-1-[(2-amino-2-oxoethyl)amino]-1-oxohexan-2-yl}pyrrolidine-2-carboxamide
final LC-MS purity (conjugation step): 99%
conjugation yield (conjugation step, run 1): 23% of theory
conjugation yield (conjugation step, run 2): 7% of theory

(6R,9S,12S,15S,18S,21R)-21-Amino-9-(2-amino-2-oxoethyl)-12-(3-amino-3-oxopropyl)-15-benzyl-2-(4-carboxybutyl)-18-(4-hydroxybenzyl)-8,11,14,17,20-pentaoxo-1,4-dithia-7,10,13,16,19-pentaazacyclodocosane-6-carboxylic acid
step yield [1]: 8% of theory
step yield [2]: 4% of theory

terlipressin + N-Boc-L-propargylglycine, Fraction 1
step yield (late stage modification step): 4% of theory

terlipressin + N-Boc-L-propargylglycine, Fraction 2
step yield (late stage modification step): 15% of theory
final LC-MS purity (late stage modification step): 94%

terlipressin + N-Boc-L-propargylglycine, Fraction 3
step yield (late stage modification step): 3% of theory
final LC-MS purity (late stage modification step): 89%
